Results are given in words; binding and its absence hold for the method and conditions named. Binding seen in cells or lysates may run through a third protein. These calls come from enrichment with a bait or labelling near it, and not all partners need be listed.

By UniProt entry, the sequences of proteins in these tests, tags left out. Where a name states a change or a piece, a line headed by the entry shows the natural chain unless it says otherwise.
UniProt P20340: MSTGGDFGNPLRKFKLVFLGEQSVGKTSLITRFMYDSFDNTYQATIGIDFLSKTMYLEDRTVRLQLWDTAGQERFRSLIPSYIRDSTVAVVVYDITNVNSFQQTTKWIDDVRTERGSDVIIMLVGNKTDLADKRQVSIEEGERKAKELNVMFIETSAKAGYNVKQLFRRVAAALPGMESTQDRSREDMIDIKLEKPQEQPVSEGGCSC

Drawing on paper PMC6639074, this text covers binding for six molecules.

The target in this assay is Rab6A(Q72L)-BirA*-HA-MAO (human) (UniProt P20340). Briefly: proximity labelling; MitoID: GTPase-BirA*-HA-MAO chimera on mitochondria of transiently transfected HEK293T cells, 50 uM biotin 18 h, streptavidin beads, mass spectrometry, biological triplicates; hits by WD scores and volcano plots against the GDP-locked forms.

B1: DENDD5A (protein, UniProt Q6IQ26 1-1287)
chain: MSGGGGGGGSAPSRFADYFVICGLDTETGLEPDELSALCQYIQASKARDGASPFISSTTEGENFEQTPLRRTFKSKVLARYPENVEWNPFDQDAVGMLCMPKGLAFKTQADPREPQFHAFIITREDGSRTFGFALTFYEEVTSKQICSAMQTLYHMHNAEYDVLHAPPADDRDQSSMEDGEDTPVTKLQRFNSYDISRDTLYVSKCICLITPMSFMKACRSVLEQLHQAVTSPQPPPLPLESYIYNVLYEVPLPPPGRSLKFSGVYGPIICQRPSTNELPLFDFPVKEVFELLGVENVFQLFTCALLEFQILLYSQHYQRLMTVAETITALMFPFQWQHVYVPILPASLLHFLDAPVPYLMGLHSNGLDDRSKLELPQEANLCFVDIDNHFIELPEDLPQFPNKLEFVQEVSEILMAFGIPPEGNLHCSESASKLKRLRASELVSDKRNGNIAGSPLHSYELLKENETIARLQALVKRTGVSLEKLEVREDPSSNKDLKVQCDEEELRIYQLNIQIREVFANRFTQMFADYEVFVIQPSQDKESWFTNREQMQNFDKASFLSDQPEPYLPFLSRFLETQMFASFIDNKIMCHDDDDKDPVLRVFDSRVDKIRLLNVRTPTLRTSMYQKCTTVDEAEKAIELRLAKIDHTAIHPHLLDMKIGQGKYEPGFFPKLQSDVLSTGPASNKWTKRNAPAQWRRKDRQKQHTEHLRLDNDQREKYIQEARTMGSTIRQPKLSNLSPSVIAQTNWKFVEGLLKECRNKTKRMLVEKMGREAVELGHGEVNITGVEENTLIASLCDLLERIWSHGLQVKQGKSALWSHLLHYQDNRQRKLTSGSLSTSGILLDSERRKSDASSLMPPLRISLIQDMRHIQNIGEIKTDVGKARAWVRLSMEKKLLSRHLKQLLSDHELTKKLYKRYAFLRCDDEKEQFLYHLLSFNAVDYFCFTNVFTTILIPYHILIVPSKKLGGSMFTANPWICISGELGETQIMQIPRNVLEMTFECQNLGKLTTVQIGHDNSGLYAKWLVEYVMVRNEITGHTYKFPCGRWLGKGMDDGSLERILVGELLTSQPEVDERPCRTPPLQQSPSVIRRLVTISPNNKPKLNTGQIQESIGEAVNGIVKHFHKPEKERGSLTLLLCGECGLVSALEQAFQHGFKSPRLFKNVFIWDFLEKAQTYYETLEKNEVVPEENWHTRARNFCRFVTAINNTPRNIGKDGKFQMLVCLGARDHLLHHWIALLADCPITAHMYEDVALIKDHTLVNSLIRVLQTLQEFNITLETSLVKGIDI
Turning to B1, the binding entry is on record as “binds”.

B2: TMF1 (protein, UniProt P82094 1-1093)
chain: MSWFNASQLSSFAKQALSQAQKSIDRVLDIQEEEPSIWAETIPYGEPGISSPVSGGWDTSTWGLKSNTEPQSPPIASPKAITKPVRRTVVDESENFFSAFLSPTDVQTIQKSPVVSKPPAKSQRPEEEVKSSLHESLHIGQSRTPETTESQVKDSSLCVSGETLAAGTSSPKTEGKHEETVNKESDMKVPTVSLKVSESVIDVKTTMESISNTSTQSLTAETKDIALEPKEQKHEDRQSNTPSPPVSTFSSGTSTTSDIEVLDHESVISESSASSRQETTDSKSSLHLMQTSFQLLSASACPEYNRLDDFQKLTESCCSSDAFERIDSFSVQSLDSRSVSEINSDDELSGKGYALVPIIVNSSTPKSKTVESAEGKSEEVNETLVIPTEEAEMEESGRSATPVNCEQPDILVSSTPINEGQTVLDKVAEQCEPAESQPEALSEKEDVCKTVEFLNEKLEKREAQLLSLSKEKALLEEAFDNLKDEMFRVKEESSSISSLKDEFTQRIAEAEKKVQLACKERDAAKKEIKNIKEELATRLNSSETADLLKEKDEQIRGLMEEGEKLSKQQLHNSNIIKKLRAKDKENENMVAKLNKKVKELEEELQHLKQVLDGKEEVEKQHRENIKKLNSMVERQEKDLGRLQVDMDELEEKNRSIQAALDSAYKELTDLHKANAAKDSEAQEAALSREMKAKEELSAALEKAQEEARQQQETLAIQVGDLRLALQRTEQAAARKEDYLRHEIGELQQRLQEAENRNQELSQSVSSTTRPLLRQIENLQATLGSQTSSWEKLEKNLSDRLGESQTLLAAAVERERAATEELLANKIQMSSMESQNSLLRQENSRFQAQLESEKNRLCKLEDENNRYQVELENLKDEYVRTLEETRKEKTLLNSQLEMERMKVEQERKKAIFTQETIKEKERKPFSVSSTPTMSRSSSISGVDMAGLQTSFLSQDESHDHSFGPMPISANGSNLYDAVRMGAGSSIIENLQSQLKLREGEITHLQLEIGNLEKTRSIMAEELVKLTNQNDELEEKVKEIPKLRTQLRDLDQRYNTILQMYGEKAEEAEELRLDLEDVKNMYKTQIDELLRQSLS
In the case of B2, the binding result was “binds”.

B3: DENND5B (protein, UniProt Q6ZUT9 1-1274)
chain: MSGSCAAPGPGSGSSPAACRFAHYFVLCGIDADSGLEPDELAGENFDQSPLRRTFKSKVLAHYPQNIEWNPFDQDAVNMLCMPKGLSFRTQTDNKDPQFHSFIITREDGSRTYGFVLTFYEEVTSKQICTAMQTLYQMHNAEHYSSVYASSSCSMDSLASSLDEGDTTSLLKLQRYNSYDISRDTLYVSKSICLITPLPFMQACKKFLIQLYKAVTSQQPPPLPLESYIHNILYEVPLPPPGRSLKFYGVYEPVICQRPGPSELPLSDYPLREAFELLGLENLVQVFTCVLLEMQILLYSQDYQRLMTVAEGITTLLFPFQWQHVYVPILPASLLHFLDAPVPYLMGLQSKEGTDRSKLELPQEANLCFVDIDNHFIELPEEFPQFPNKVDFIQELSEVLVQFGIPPEGSLHCSESTSKLKNMVLKDLVNDKKNGNVCTNNISMYELLKGNETIARLQALAKRTGVAVEKMDLSASLGEKDKDLKLHCEEAELRDYQLNVQLREVFANRFTQMFADYEAFVIQTAQDMESWLTNREQMQNFDKASFLSDQPEPYLPFLSRFIETQMFATFIDNKIMSQWEEKDPLLRVFDTRIDKIRLYNVRAPTLRTSIYQKCSTLKEAAQSIEQRLMKMDHTAIHPHLLDMKIGQGKYEQGFFPKLQSDVLATGPTSNNRWVSRSATAQRRKERLRQHSEHVGLDNDLREKYMQEARSLGKNLRQPKLSDLSPAVIAQTNCKFVEGLLKECRMKTKRMLVEKMGHEAVELGHGEANITGLEENTLIASLCDLLERIWSHGLQVKQGKSALWSHLIQFQDREEKQEHLAESPVALGPERRKSDSGVMLPTLRVSLIQDMRHIQNMSEIKTDVGRARAWIRLSLEKKLLSQHLKQLLSNQPLTKKLYKRYAFLRCEEEREQFLYHLLSLNAVDYFCFTSVFTTIMIPYRSVIIPIKKLSNAIITSNPWICVSGELGDTGVMQIPKNLLEMTFECQNLGKLTTVQIGHDNSGLLAKWLVDCVMVRNEITGHTYRFPCGRWLGKGIDDGSLERILIGELMTSASDEDLVKQCRTPPQQKSPTTARRLSITSLTGKNNKPNAGQIQEGIGEAVNNIVKHFHKPEKERGSLTVLLCGENGLVAALEQVFHHGFKSARIFHKNVFIWDFIEKVVAYFETTDQILDNEDDVLIQKSSCKTFCHYVNAINTAPRNIGKDGKFQILVCLGTRDRLLPQWIPLLAECPAITRMYEESALLRDRMTVNSLIRILQTIQDFTIVLEGSLIKGVDV
Consider B3, for which the binding result is on record as “binds”.

B4: MB21D2 (protein, UniProt Q8IYB1 1-491)
chain: MKMAAPTANKAASLGCNNKPAFPELDFRSGARVEELNKLIQEFTKHDQREYDDQRALEIHTAKDFIFSMLGMVQKLDQKLPVANEYLLLSGGVREGVVDLDLDELNVYARGTDYDMDFTLLVPALKLHDRNQPVTLDMRHSALCHSWLSLRLFDEGTISKWKDCCTIVDHINGATNYFFSPTKVADWFYDSISIVLSEIQKKPQRGMPKVEKVEKNGTIISIILGVGSSRMLYDIVPVVSFKGWPAVAQSWLMENHFWDGKITEEEVISGFYLVPACSYKGKKDNEWRLSFARSEVQLKKCISSSLMQAYQACKAIIIKLLSRPKAISPYHLRSMMLWACDRLPANYLAQEDYAAHFLLGLIDDLQHCLVNKMCPNYFIPQCNMLEHLSEETVMLHARKLSSVRSDPAEHLRTAIEHVKAANRLTLELQRRGSTTSIPSPQSDGGDPNQPDDRLAKKLQQLVTENPGKSISVFINPDDVTRPHFRIDDKFF
As to B4, the binding entry is “binds”.

B5: ERC2 (protein, UniProt O15083 1-957)
chain: MYGSARTITNLEGSPSRSPRLPRSPRLGHRRTSSGGGGGTGKTLSMENIQSLNAAYATSGPMYLSDHEGVASTTYPKGTMTLGRATNRAVYGGRVTAMGSSPNIASAGLSHTDVLSYTDQHGGLTGSSHHHHHQVPSMLRQVRDSTMLDLQAQLKELQRENDLLRKELDIKDSKLGSSMNSIKTFWSPELKKERVLRKEEAARMSVLKEQMRVSHEENQHLQLTIQALQDELRTQRDLNHLLQQESGNRGAEHFTIELTEENFRRLQAEHDRQAKELFLLRKTLEEMELRIETQKQTLNARDESIKKLLEMLQSKGLPSKSLEDDNERTRRMAEAESQVSHLEVILDQKEKENIHLREELHRRSQLQPEPAKTKALQTVIEMKDTKIASLERNIRDLEDEIQMLKANGVLNTEDREEEIKQIEVYKSHSKFMKTKIDQLKQELSKKESELLALQTKLETLSNQNSDCKQHIEVLKESLTAKEQRAAILQTEVDALRLRLEEKESFLNKKTKQLQDLTEEKGTLAGEIRDMKDMLEVKERKINVLQKKIENLQEQLRDKDKQLTNLKDRVKSLQTDSSNTDTALATLEEALSEKERIIERLKEQRERDDRERLEEIESFRKENKDLKEKVNALQAELTEKESSLIDLKEHASSLASAGLKRDSKLKSLEIAIEQKKEECSKLEAQLKKAHNIEDDSRMNPEFADQIKQLDKEASYYRDECGKAQAEVDRLLEILKEVENEKNDKDKKIAELESLTLRHMKDQNKKVANLKHNQQLEKKKNAQLLEEVRRREDSMADNSQHLQIEELMNALEKTRQELDATKARLASTQQSLAEKEAHLANLRIERRKQLEEILEMKQEALLAAISEKDANIALLELSASKKKKTQEEVMALKREKDRLVHQLKQQTQNRMKLMADNYDDDHHHYHHHHHHHHHRSPGRSQHSNHRPSPDQDDEEGIWA
In the case of B5, the binding entry is on record as “binds”.

B6: bicaudal-1 (protein, UniProt Q96G01 1-975)
chain: MAAEEVLQTVDHYKTEIERLTKELTETTHEKIQAAEYGLVVLEEKLTLKQQYDELEAEYDSLKQELEQLKEAFGQSFSIHRKVAEDGETREETLLQESASKEAYYLGKILEMQNELKQSRAVVTNVQAENERLTAVVQDLKENNEMVELQRIRMKDEIREYKFREARLLQDYTELEEENITLQKLVSTLKQNQVEYEGLKHEIKRFEEETVLLNSQLEDAIRLKEIAEHQLEEALETLKNEREQKNNLRKELSQYISLNDNHISISVDGLKFAEDGSEPNNDDKMNGHIHGPLVKLNGDYRTPTLRKGESLNPVSDLFSELNISEIQKLKQQLMQVEREKAILLANLQESQTQLEHTKGALTEQHERVHRLTEHVNAMRGLQSSKELKAELDGEKGRDSGEEAHDYEVDINGLEILECKYRVAVTEVIDLKAEIKALKEKYNKSVENYTDEKAKYESKIQMYDEQVTSLEKTTKESGEKMAHMEKELQKMTSIANENHSTLNTAQDELVTFSEELAQLYHHVCLCNNETPNRVMLDYYRQSRVTRSGSLKGPDDPRGLLSPRLARRGVSSPVETRTSSEPVAKESTEASKEPSPTKTPTISPVITAPPSSPVLDTSDIRKEPMNIYNLNAIIRDQIKHLQKAVDRSLQLSRQRAAARELAPMIDKDKEALMEEILKLKSLLSTKREQIATLRAVLKANKQTAEVALANLKNKYENEKAMVTETMTKLRNELKALKEDAATFSSLRAMFATRCDEYVTQLDEMQRQLAAAEDEKKTLNTLLRMAIQQKLALTQRLEDLEFDHEQSRRSKGKLGKSKIGSPKVSGEASVTVPTIDTYLLHSQGPQTPNIRVSSGTQRKRQFSPSLCDQSRPRTSGASYLQNLLRVPPDPTSTESFLLKGPPSMSEFIQGHRLSKEKRLTVAPPDCQQPAASVPPQCSQLAGRQDCPTVSPDTALPEEQPHSSSQCAPLHCLSKPPHP
As to B6, the binding result was “binds”.
